Measurements from patent US20010026796A1, “TCL1 enhances Akt kinase activity and mediates its nuclear translocation” (priority 2000, published 2001).
For at least one compound, name, drawing or mass did not settle the structure.

Columns and labels:
[1] = tested on: phosphorylation of Akt1 in NIH-3T3 cells; experiment: Akt1 phosphorylation (anti-phospho-Akt Western blot) in PDGF-stimulated NIH-3T3 cells transfected with TCL1 or vector; assay type: cell-based; conditions: 200 nM wortmannin for 1 hour followed by 100 ng/ml PDGF for 30 min; untransfected (vector) and Tcl1 transfected NIH-3T3 cells; FIG. 3b
[2] = tested on: Akt; conditions: cited from earlier work

COC[C@H]1OC(=O)c2coc3c2[C@@]1(C)C1=C(C3=O)[C@@H]2CCC(=O)[C@@]2(C)C[C@H]1OC(C)=O [wortmannin]
effect on phosphorylation of Akt1 (Ser473) [1]: inhibits the phosphorylation of Akt1
effect on Akt1 phosphorylation and activation ([2]; PDGF-stimulated NIH-3T3 cells, Bellacosa et al. 1998, Franke et al. 1995): prevents Akt1 phosphorylation and activation
effect on activation of Akt ([2]; treatment with wortmannin, Chan et al. 1999): completely inhibits the activation of Akt
